Laboratory results: PubChem BioAssay AID1159578 (Peter MacCallum Cancer Centre, 2015)
Assay: 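siRNA pools altering how lymphatic endothelial cells close a scratch wound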 (primary screen). System: human lymphatic endothelial cells. Reagents: siRNA pool against human genes, 40 nM. Time to read-out: 48 h after transfection. Detection: 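High-content imaging of dye-stained cells in a scratch assay measures filled wound area and nuclei per well; duplicate means given as ratio to mock and robust z-score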. Direction: migration robust z-score: higher = faster migration into the scratch; migration relative to mock: higher = more scratch area covered than mock; nuclei per well: higher = more cells in the well. Call rule: 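Pools averaging fewer than 3300 nuclei are never called; remaining pools count as changed when migration robust z lies outside -2 to 2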. Meaning of the calls: active = migration changed; inactive = no migration change, or too few cells.
The whole screen tested about 18,000 reagents; below is a random part of them. About 1,030 of them (5.7%) were called active. 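Inactive calls also include pools with fewer than 3300 nuclei, whose migration was not assessed.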 The raw values are shown without normalisation. Unmarked entries are inactive. The numbers tell different reagents against one gene apart.

| Target gene | reagent no. | migration robust z-score | migration class with cell-count check | migration relative to mock | nuclei per well, duplicate mean |
| --- | --- | --- | --- | --- | --- |
| TXLNGY | 1 | 0.12 | migration z between -2 and 2; enough cells | 0.92 | 6030 |
| TXLNGY | 2 | -0.12 | migration z between -2 and 2; enough cells | 0.86 | 5250 |
| MYL3 | 1 | 0.21 | migration z between -2 and 2; enough cells | 0.84 | 4104 |
| SLC9A1 | 1 | -0.57 | migration z between -2 and 2; enough cells | 0.7 | 4218 |
| SLC38A3 | 1 | -2.02 | under 3300 nuclei; migration not judged | 0.42 | 3096 |
| BLM | 1 | 2.24 (active) | migration z above 2; enough cells | 1.23 | 5847 |
| UGT2A1 | 1 | 0.31 | migration z between -2 and 2; enough cells | 0.86 | 4462 |
| H2BC21 | 1 | 0.99 | migration z between -2 and 2; enough cells | 1.15 | 5036 |
| ATP6V0D1 | 1 | -2.46 (active) | migration z below -2; enough cells | 0.33 | 3680 |
| PGAM5 | 1 | -6.2 (active) | migration z below -2; enough cells | -0.39 | 3378 |
| CCDC69 | 1 | 0.94 | migration z between -2 and 2; enough cells | 1.13 | 6028 |
| SLC31A2 | 1 | -3.73 (active) | migration z below -2; enough cells | 0.08 | 4178 |
| SLIT3 | 1 | -1.23 | migration z between -2 and 2; enough cells | 0.57 | 4581 |
| TM6SF2 | 1 | -0.12 | migration z between -2 and 2; enough cells | 0.86 | 5380 |

4 entries from above in another layout.
{"Target gene":"UGT2A1","reagent no.":1,"migration robust z-score":0.31,"migration class with cell-count check":"migration z between -2 and 2; enough cells","migration relative to mock":0.86,"nuclei per well, duplicate mean":4462}
{"Target gene":"H2BC21","reagent no.":1,"migration robust z-score":0.99,"migration class with cell-count check":"migration z between -2 and 2; enough cells","migration relative to mock":1.15,"nuclei per well, duplicate mean":5036}
{"Target gene":"ATP6V0D1","reagent no.":1,"migration robust z-score":"-2.46 (active)","migration class with cell-count check":"migration z below -2; enough cells","migration relative to mock":0.33,"nuclei per well, duplicate mean":3680}
{"Target gene":"PGAM5","reagent no.":1,"migration robust z-score":"-6.2 (active)","migration class with cell-count check":"migration z below -2; enough cells","migration relative to mock":-0.39,"nuclei per well, duplicate mean":3378}

The list goes on:
| Target gene | reagent no. | migration robust z-score | migration class with cell-count check | migration relative to mock | nuclei per well, duplicate mean |
| --- | --- | --- | --- | --- | --- |
| RNF180 | 1 | 0.93 | migration z between -2 and 2; enough cells | 0.99 | 5563 |
| GUCD1 | 1 | 0.72 | migration z between -2 and 2; enough cells | 1.07 | 6441 |
| CDK5R1 | 1 | -4.29 | under 3300 nuclei; migration not judged | -0.02 | 2354 |
| AHDC1 | 1 | -0.18 | migration z between -2 and 2; enough cells | 0.84 | 6360 |
| KNL1 | 1 | 0.6 | migration z between -2 and 2; enough cells | 1.04 | 6198 |
| CARD18 | 1 | 0.57 | migration z between -2 and 2; enough cells | 0.92 | 6052 |
| ZNF583 | 1 | -1.28 | migration z between -2 and 2; enough cells | 0.55 | 5461 |
| PCDHA5 | 1 | 1.28 | migration z between -2 and 2; enough cells | 1.22 | 5530 |
| BRD9 | 1 | 0.3 | migration z between -2 and 2; enough cells | 0.96 | 5538 |
